Measurements reported in PubChem BioAssay AID504791 (Drosophila RNAi Screening Center, 2011).
Purpose: 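Genes of the fly required for silencing by miRNA, siRNA or endo-siRNA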 (primary screen). System: Drosophila S2-derived reporter cells. Reagent: long dsRNA against Drosophila genes, about 150-250 ng dsRNA per well (siRNA assay); about 80-120 ng (miRNA assay). Time to read-out: about 5 days (siRNA assay); about 4 days (miRNA assay). Treatment: copper sulfate induction of reporters: 25 µM (siRNA assay); 200 mM stated (miRNA assay), 1-2 days before reading. Measured: 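Dual luciferase assay: Renilla to firefly signal ratio in each well, scaled to the mean ratio of its plate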. Rule for the call: 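a well was a first-pass pick when its plate-scaled ratio rose above 1.5 (siRNA assay) or 1.6 (miRNA assay), or dropped below 0.6; a gene counted only if two separate dsRNAs agreed on retest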.
The deposit covers about 23,000 reagents; this is an unselected part of those that have a named target and a result. In the full data, 199 (0.86%) are marked active. 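Plate-scaled ratios behind the calls are not deposited; printed light signals are raw; many rows marked increased or decreased are still called inactive.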 Unmarked entries are inactive. The numbers tell different reagents against one gene apart. Not stated in the record: the direction of the score.

no.	gene knocked down	reagent	stable siRNA reporter change	miRNA reporter change	stable assay Renilla, run 1 (luminescence)	stable assay firefly, run 1 (luminescence)
1	Hand	1			7763	4.14e5
2	Pax	1			5492	3.29e5
3	Pax	2			9958	1.64e6
4	Pax	3			7539	4.52e5
5	Had1	1			4694	3.14e5
6	SdhBL	1			5000	3.20e5
7	Phb1	1		reporter ratio raised past the hit cutoff (active)	7494	1.44e6
8	AP-2alpha	1			9827	3.93e5
9	Zip102B	1			4268	4.53e5
10	glob2	1			7759	5.27e5
11	CG1701	1			6307	4.02e5
12	twi	1			4592	2.31e5
13	twi	2			3799	3.05e5
14	Spag1	1			6187	3.58e5
15	CG34126	1			9117	6.11e5
16	CG34126	2			9326	6.43e5
17	Mondo	1			87604	4.51e5
18	Mondo	2			5563	3.47e5
19	Mondo	3			9221	4.85e5
20	lig	1	reporter ratio raised past the hit cutoff		14354	3.30e5
21	lig	2			4136	2.58e5

Records above whose gene name starts with H or h:
gene knocked down	reagent	stable siRNA reporter change	miRNA reporter change	stable assay Renilla, run 1 (luminescence)	stable assay firefly, run 1 (luminescence)
Hand	1			7763	4.14e5
Had1	1			4694	3.14e5

Continued:
no.	gene knocked down	reagent	stable siRNA reporter change	miRNA reporter change	stable assay Renilla, run 1 (luminescence)	stable assay firefly, run 1 (luminescence)
22	Mf	1			8074	3.88e5
23	CG1620	1			51236	2.33e6
24	Task6	1			6574	3.67e5
25	CG31533	1			3780	2.59e5
26	Cht12	1			5756	4.01e5
27	TpnC4	1			7619	5.31e5
28	crb	1			11458	3.75e5
29	CG4364	1			8566	1.18e6
30	lft	1			6890	2.78e5
31	CG5068	1			7899	4.95e5
32	dmGlut	1			20637	2.57e5
33	CG3702	1			12217	7.29e5
34	CG12236	1			9119	3.62e5
35	CG12236	2			5215	3.06e5
